Assay results as given in PubChem BioAssay AID2685 (National Center for Advancing Translational Sciences (NCATS), 2010).
The other results are listed elsewhere or left out. These are further read-outs of the screen, such as a control signal, another cell line or another target. No call is given for them. The list favours compounds with an active or inconclusive main result. Words in brackets tell the shape of the fitted curve; partial curves, single points and poor fits give uncertain potencies.

Experiment: qHTS Assay for Lipid Storage Modulators in Drosophila S3 Cells;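 on cell number change: cells counted by Cell Tracker Red CMTPX staining in the red channel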
Settings: BODIPY lipid droplet fluorescence, 18-24 h; for cell number change: measured here: cell count max response, cells fed with added oleic acid
Procedure, shortened: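 Drosophila S3 cells got compounds at several concentrations plus oleic acid (400 uM solution). Laser-scanning cytometry with 488 nm excitation read lipid droplets at 500-530 nm and cells at 575-640 nm. Percent activity was relative to 20 uM Triacsin C.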

[1] = measured here: cell number channel AC50, cells fed with added oleic acid
[2] = measured here: lipid fluorescence (Fed channel) AC50, cells fed with added oleic acid

| SMILES | cell number change [%] | AC50 [1] | AC50 [2] |
| --- | --- | --- | --- |
| CCOc1cc(NC(=O)CCl)c(OCC)cc1NC(C)=O | -32.2 | 29.1 µM [falling, single point] |  |
| Cc1cc(C(=O)OCC(=O)NCc2ccccc2Cl)c(C)o1 |  | 1.84 µM [rising, partial curve] | 6.51 µM [rising, partial curve, poor fit] |
| COc1ccc(Br)cc1[C@H]1[C@H]2C=CC[C@@H](C)[C@@H]2C(=O)N1Cc1ccccc1 | -12.7 |  | 29.1 µM [falling, single point] |
| Cc1cc(=O)oc2cc(OC(=O)c3nn(C(C)C)c(=O)c4ccccc34)ccc12 | 4.39 |  |  |
| CCC1(c2ccc(F)cc2)NC(=O)N(CC(=O)Nc2ccc(N3CCCCC3)cc2)C1=O (configuration not stated) | -52.6 | 29.1 µM [falling, single point] | 4.11 µM [rising, full curve] |
| COC(=O)C(NC(=O)c1ccccc1)c1ccccc1 (configuration not stated) | 3.84 |  |  |
| COc1cc(OC)c2c(C)cc(=O)oc2c1 | 0.0646 |  |  |
| Cc1cccc(C)c1NC(=O)CNC(=O)C(C)N(C)CC(=O)Nc1ccc(F)cc1 (configuration not stated) | -15.2 |  | 0.0326 µM [falling, full curve, poor fit] |
| COc1ccc(N2CCN(C(c3ccccc3OC)c3nnnn3Cc3ccco3)CC2)cc1 (configuration not stated) | 19.9 |  | 2.59 µM [rising, single point] |
| COC(=O)c1sc(NC(=O)CSc2nnnn2-c2ccc(C)cc2C)nc1C | -0.6 |  | 0.00461 µM [falling, full curve, poor fit] |
| CC1=C(C(=O)OCc2ccccc2)C(/C=C/c2ccccc2)N2C(=O)CCSC2=N1 (configuration not stated) | 15.6 |  | 6.51 µM [rising, single point] |
| CC1CC(C)CN(c2oc(-c3ccco3)nc2C#N)C1 (configuration not stated) | -17.5 |  | 0.326 µM [falling, full curve, poor fit] |
| COc1cccc(NC(=O)N2CCCC2C(=O)NCc2ccccc2F)c1 (configuration not stated) | 25.9 |  | 29.1 µM [rising, single point] |
| Cc1ccc(C(=O)NCCc2csc(C)n2)cc1 | 40.3 | 11.6 µM [rising, partial curve] | 3.66 µM [rising, single point] |
| COc1ccccc1N(Cc1ccccc1)S(=O)(=O)c1cccc(C(=O)O)c1 | 16.7 | 6.51 µM [rising, single point] | 0.731 µM [falling, full curve, poor fit] |
| CCOc1ccc2nc(NCCNC(=O)c3cc(OC)c(OC)c(OC)c3)c(C#N)cc2c1 | 16.1 |  | 0.0206 µM [rising, full curve, poor fit] |

Already shown: entries from further up.

| SMILES | cell number change [%] | AC50 [1] | AC50 [2] |
| --- | --- | --- | --- |
| Cc1cc(C(=O)OCC(=O)NCc2ccccc2Cl)c(C)o1 |  | 1.84 µM [rising, partial curve] | 6.51 µM [rising, partial curve, poor fit] |
| COc1ccc(Br)cc1[C@H]1[C@H]2C=CC[C@@H](C)[C@@H]2C(=O)N1Cc1ccccc1 | -12.7 |  | 29.1 µM [falling, single point] |
